Data: paper PMC6697728
These are yes or no findings as the source states them, for the method shown. Binding seen in cells or lysates may run through a third protein. Some entries that bind do so weakly or less than the wild type.

Amino acid sequences for entries named in this document (tags omitted). Residues count along the entry.
UniProt P29323, residues 19-1055: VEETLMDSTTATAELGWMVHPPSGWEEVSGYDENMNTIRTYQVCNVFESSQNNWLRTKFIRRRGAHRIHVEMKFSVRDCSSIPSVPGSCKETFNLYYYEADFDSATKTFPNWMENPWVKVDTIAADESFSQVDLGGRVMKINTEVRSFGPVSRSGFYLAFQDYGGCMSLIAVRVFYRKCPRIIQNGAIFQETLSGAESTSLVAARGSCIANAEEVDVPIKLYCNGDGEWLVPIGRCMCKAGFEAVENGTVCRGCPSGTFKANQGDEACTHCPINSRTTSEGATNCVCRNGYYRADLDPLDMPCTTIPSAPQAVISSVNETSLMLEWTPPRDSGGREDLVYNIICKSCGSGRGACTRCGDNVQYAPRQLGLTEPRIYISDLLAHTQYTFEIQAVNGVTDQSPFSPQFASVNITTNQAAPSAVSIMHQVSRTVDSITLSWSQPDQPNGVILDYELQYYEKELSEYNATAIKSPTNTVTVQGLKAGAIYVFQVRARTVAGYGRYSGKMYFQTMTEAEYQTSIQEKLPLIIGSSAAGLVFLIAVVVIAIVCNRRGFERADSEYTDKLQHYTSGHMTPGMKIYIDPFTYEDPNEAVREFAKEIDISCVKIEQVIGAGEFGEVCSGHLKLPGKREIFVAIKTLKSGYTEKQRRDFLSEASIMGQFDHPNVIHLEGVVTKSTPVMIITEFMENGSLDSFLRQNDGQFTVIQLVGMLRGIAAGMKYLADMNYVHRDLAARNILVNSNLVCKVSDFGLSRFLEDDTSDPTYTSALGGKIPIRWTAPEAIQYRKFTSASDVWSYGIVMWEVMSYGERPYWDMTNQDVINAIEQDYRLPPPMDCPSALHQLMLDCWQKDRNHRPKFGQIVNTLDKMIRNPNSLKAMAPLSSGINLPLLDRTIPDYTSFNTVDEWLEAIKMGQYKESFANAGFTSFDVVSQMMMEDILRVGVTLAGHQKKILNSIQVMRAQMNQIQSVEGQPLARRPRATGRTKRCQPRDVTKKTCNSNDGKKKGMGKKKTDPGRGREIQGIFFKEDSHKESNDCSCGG
UniProt Q9H3S7: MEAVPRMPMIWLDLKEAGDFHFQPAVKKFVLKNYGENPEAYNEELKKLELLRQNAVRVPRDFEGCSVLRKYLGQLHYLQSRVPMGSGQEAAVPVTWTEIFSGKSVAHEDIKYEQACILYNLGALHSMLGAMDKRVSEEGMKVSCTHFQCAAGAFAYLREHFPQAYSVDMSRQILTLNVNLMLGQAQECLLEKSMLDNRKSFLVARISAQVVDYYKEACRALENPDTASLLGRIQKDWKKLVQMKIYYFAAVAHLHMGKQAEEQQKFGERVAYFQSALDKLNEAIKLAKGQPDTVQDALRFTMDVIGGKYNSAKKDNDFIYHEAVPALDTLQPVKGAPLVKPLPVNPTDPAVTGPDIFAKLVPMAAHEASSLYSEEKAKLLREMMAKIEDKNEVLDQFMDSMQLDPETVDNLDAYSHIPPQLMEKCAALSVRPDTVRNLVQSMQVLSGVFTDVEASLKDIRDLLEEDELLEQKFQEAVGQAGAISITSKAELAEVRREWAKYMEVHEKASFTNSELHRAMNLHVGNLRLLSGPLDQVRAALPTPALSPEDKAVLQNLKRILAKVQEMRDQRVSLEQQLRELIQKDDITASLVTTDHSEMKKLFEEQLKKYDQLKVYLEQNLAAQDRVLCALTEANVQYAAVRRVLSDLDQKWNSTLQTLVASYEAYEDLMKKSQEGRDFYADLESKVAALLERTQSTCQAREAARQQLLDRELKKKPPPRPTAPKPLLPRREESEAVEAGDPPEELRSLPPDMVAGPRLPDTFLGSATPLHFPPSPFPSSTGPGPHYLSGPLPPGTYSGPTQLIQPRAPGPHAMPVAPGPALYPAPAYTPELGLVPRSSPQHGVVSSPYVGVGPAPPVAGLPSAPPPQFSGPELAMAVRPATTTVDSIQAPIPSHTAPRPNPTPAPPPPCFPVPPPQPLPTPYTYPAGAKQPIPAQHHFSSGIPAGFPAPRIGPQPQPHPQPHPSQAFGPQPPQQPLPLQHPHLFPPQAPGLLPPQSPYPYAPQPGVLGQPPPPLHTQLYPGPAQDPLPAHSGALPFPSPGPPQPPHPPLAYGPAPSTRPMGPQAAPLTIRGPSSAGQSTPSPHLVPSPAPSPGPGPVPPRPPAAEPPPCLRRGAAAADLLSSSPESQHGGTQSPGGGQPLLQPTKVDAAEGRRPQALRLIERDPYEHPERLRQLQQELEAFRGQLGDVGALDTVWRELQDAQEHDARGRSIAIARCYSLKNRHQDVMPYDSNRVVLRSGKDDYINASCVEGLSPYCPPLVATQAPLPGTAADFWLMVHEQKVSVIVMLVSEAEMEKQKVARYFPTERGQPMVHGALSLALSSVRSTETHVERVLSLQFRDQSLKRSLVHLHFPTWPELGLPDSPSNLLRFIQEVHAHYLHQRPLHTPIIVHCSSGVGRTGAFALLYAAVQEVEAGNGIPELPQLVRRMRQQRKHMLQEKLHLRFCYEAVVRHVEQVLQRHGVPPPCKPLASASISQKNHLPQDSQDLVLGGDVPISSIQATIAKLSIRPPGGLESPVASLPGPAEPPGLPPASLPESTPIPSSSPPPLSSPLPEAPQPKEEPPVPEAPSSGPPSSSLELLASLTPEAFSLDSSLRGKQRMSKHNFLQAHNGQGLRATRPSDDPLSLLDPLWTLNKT

Tests used:
EphB2-BirA*-FLAG [1] = molecular target: EphB2-BirA*-FLAG (UniProt P29323); assay: condition: only without ephrin-B2-Fc stimulation (Fc or medium); co-IP; as a2 but cells treated with Fc (1.5 ug/mL, pre-clustered) or medium instead of eB2
EphB2-BirA*-FLAG [2] = molecular target: EphB2-BirA*-FLAG (UniProt P29323); assay: co-IP; EphB2-OE HEK293 transfected with HD-PTP-HA, stimulated 15 min with 1.5 ug/mL pre-clustered eB2 at 37 C; CHAPS lysis buffer; anti-FLAG beads 3 h at 4 C; blot for HA

HD-PTP-HA (from UniProt Q9H3S7 1-1636)
binding (EphB2-BirA*-FLAG [1]): no binding
binding (EphB2-BirA*-FLAG [2]): binds
